Patent US20030003050A1 (priority 2001, published 2003)
Read-outs that look alike come from different tables or passages of the source.

Test system: B6μ, Heμ and CXμ mice
Details: before vs after 10 mg/kg intraperitoneal, 15 minutes after injection, measured for 300 seconds

CN1CC[C@]23c4c5ccc(O)c4O[C@H]2[C@@H](O)C=C[C@H]3[C@H]1C5.Cl [morphine, Morphine hydrochloride]
walking distance (morphine-induced hyperactivity), open-field test (B6μ and Heμ mice): walked similar distances before and after morphine administration | walking distance (morphine-induced hyperactivity), open-field test (CXμ mice, p<0.001): walked significantly shorter distances after morphine administration
